Values of other authors as cited in patent publication US5432274A, “Redox dye and method of preparation thereof using 2-hydroxypropyl-β-cyclodextrin and 1,1'-dimethylferrocene” (National Research Council of Canada, priority 1993, dated 1995).
At least one compound was matched to its structure with a doubt left.

Conditions: cited from earlier work

Compound | E° redox potential [mV]
O=C(O)c1ccc[cH-]1.O=C(O)c1ccc[cH-]1.[Fe+2] [1,1'-Dicarboxy] | 403
CN(C)Cc1ccc[cH-]1.[Fe+2].c1cc[cH-]c1 [(Dimethylamino)methyl] | 386
